This is one part of the list.
Legend:
Assay in all cases: log2 fold change, soluble protein after heating vs DMSO (PISA); higher = thermal stabilisation; K562 lysate, 10 uM; active = over 0.2 and 3.5 SD of the protein, either way, in both replicates (recomputed)
[1] = compound: C#Cc1cccc(Nc2ncnc3cc(OCCOC)c(OCCOC)cc23)c1 [erlotinib]
Method in brief: (§1)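 K562 pellets were dounce-homogenised in PBS pH 7.4 containing 1 mM MgCl2, and the crude extract, at 1 mg/mL protein, was exposed to 10 μM compound for 30 min. Aliquots were heated for 3 min across 48°C-58°C, pooled, brought to 0.5% NP-40 at 4°C and spun at 21,000xg for 90 min, with the supernatant taken as soluble protein. TMTpro 16plex LC-MS/MS with equalised channel sums quantified that protein. Values are log-two fold changes in thermal stability relative to solvent controls, taken from duplicates.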

The chains behind the UniProt entries cited, without tags or fusion partners. Where a name states a change or a piece, a line headed by the entry shows the natural chain unless it says otherwise.
UniProt Q15008: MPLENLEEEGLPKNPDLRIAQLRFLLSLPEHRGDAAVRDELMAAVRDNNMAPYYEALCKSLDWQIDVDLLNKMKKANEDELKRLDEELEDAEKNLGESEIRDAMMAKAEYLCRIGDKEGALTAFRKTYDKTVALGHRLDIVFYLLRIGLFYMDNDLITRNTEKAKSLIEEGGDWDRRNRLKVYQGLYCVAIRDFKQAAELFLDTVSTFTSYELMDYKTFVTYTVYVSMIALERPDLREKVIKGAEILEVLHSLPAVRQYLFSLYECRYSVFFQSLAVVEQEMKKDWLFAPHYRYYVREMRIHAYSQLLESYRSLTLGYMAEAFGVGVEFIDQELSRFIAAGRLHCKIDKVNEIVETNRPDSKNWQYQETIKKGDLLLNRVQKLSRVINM
UniProt P06454: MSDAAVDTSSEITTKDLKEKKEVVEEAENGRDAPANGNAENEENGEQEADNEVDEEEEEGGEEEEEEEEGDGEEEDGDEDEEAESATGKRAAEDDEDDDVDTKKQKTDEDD
UniProt Q15185: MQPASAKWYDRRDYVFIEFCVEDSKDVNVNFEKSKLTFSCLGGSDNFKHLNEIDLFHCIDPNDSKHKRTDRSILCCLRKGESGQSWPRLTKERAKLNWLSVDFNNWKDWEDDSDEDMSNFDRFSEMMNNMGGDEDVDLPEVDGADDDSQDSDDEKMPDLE
UniProt Q16651: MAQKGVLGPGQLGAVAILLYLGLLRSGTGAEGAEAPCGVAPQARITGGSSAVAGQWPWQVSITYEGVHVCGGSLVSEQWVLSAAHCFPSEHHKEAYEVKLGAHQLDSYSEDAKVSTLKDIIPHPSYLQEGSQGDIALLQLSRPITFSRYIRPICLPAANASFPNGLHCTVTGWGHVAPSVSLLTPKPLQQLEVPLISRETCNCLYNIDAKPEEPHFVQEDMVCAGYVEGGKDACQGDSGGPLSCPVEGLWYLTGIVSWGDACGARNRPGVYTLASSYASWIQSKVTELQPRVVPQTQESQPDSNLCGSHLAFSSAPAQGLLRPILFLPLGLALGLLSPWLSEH
UniProt P60484: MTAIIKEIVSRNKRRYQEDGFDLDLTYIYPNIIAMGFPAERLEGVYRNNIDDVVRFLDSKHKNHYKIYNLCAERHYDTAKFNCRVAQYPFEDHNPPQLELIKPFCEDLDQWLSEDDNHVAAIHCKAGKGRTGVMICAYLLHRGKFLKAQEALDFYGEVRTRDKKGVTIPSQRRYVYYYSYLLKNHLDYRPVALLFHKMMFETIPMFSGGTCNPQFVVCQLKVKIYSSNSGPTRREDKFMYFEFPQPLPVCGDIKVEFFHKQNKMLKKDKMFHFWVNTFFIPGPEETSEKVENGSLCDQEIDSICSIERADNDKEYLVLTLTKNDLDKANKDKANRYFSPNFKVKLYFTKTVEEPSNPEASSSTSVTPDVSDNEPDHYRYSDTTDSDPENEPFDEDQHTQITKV
UniProt P10586, whole entry, looked up: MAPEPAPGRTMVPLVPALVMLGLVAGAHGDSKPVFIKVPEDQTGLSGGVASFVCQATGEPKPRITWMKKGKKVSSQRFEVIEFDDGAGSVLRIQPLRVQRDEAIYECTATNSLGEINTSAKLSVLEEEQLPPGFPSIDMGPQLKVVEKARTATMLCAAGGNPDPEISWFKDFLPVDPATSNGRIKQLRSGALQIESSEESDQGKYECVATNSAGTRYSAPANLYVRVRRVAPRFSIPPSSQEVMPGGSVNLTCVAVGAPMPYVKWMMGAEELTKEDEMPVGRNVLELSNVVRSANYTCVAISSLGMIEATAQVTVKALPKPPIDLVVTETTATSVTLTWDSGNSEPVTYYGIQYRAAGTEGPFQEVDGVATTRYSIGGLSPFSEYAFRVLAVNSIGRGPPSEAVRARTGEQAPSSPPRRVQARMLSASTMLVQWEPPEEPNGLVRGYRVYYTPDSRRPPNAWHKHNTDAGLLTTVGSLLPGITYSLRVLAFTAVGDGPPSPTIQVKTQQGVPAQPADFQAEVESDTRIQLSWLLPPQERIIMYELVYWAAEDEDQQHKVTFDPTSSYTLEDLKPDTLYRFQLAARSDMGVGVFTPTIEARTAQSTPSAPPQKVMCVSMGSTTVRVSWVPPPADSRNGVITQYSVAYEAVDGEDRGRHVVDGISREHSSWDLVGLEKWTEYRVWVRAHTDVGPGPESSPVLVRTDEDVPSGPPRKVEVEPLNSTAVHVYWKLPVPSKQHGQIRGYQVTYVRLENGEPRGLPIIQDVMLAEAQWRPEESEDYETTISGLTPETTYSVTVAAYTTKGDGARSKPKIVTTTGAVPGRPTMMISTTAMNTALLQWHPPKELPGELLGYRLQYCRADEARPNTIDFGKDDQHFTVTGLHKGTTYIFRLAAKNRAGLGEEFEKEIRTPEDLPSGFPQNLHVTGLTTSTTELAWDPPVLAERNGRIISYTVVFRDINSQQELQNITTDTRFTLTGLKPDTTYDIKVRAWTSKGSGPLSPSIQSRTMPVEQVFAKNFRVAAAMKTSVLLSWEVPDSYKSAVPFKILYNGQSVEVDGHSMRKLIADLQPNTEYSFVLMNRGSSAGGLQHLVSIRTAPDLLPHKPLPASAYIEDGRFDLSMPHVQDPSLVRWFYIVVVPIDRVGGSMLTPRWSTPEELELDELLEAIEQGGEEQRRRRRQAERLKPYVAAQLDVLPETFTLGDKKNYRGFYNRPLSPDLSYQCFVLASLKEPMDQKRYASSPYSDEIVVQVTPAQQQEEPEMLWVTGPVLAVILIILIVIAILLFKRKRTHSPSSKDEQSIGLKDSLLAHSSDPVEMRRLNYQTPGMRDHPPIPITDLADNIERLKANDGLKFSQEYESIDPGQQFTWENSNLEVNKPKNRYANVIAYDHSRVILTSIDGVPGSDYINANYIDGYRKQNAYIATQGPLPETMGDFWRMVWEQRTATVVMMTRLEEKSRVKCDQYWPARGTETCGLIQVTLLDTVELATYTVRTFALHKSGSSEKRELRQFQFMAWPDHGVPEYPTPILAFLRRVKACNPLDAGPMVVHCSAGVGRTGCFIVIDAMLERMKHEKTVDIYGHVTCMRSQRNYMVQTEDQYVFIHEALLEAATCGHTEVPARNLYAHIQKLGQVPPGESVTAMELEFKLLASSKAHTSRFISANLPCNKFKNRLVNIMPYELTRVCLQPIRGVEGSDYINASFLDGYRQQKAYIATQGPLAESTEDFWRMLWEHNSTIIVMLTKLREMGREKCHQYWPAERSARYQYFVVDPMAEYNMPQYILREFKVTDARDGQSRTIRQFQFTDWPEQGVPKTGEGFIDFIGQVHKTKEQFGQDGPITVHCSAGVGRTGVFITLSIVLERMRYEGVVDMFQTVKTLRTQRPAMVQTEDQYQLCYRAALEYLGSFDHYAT
UniProt O14818: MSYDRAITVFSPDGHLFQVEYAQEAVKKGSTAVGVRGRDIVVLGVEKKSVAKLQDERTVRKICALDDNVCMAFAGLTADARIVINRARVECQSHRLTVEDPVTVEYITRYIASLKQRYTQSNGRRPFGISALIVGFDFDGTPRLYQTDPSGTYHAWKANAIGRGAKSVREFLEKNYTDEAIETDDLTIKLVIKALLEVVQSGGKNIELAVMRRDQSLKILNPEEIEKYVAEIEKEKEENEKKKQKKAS

[2] = compound: C1=CC(=CC=C1C2=NC3=C(N2)C=C(C=C3)C(=O)N)OC4=CC=C(C=C4)Cl
Method in brief: as §1

[3] = compound: C1=CC2=NC=CN=C2C=C1/C=C/3\C(=O)NC(=O)S3
Method in brief: as §1

[4] = compound: C/C(=N\NC(=O)C1=CC(=CC=C1)S(=O)(=O)N2CCOCC2)/C3=C(C=CC(=C3)Cl)O
Method in brief: as §1

[5] = compound: C1=CC2=C(C=CC(=C2)/C=C\3/C(=O)NC(=NCC4=CC=CS4)S3)N=C1
Method in brief: as §1

[6] = compound: C1=CC=C2C(=C1)C3=NNC4=CC=CC(=C43)C2=O
Method in brief: as §1

[7] = compound: C1=CC=C(C=C1)C2=NC(=C(N2)C3=CC=NC=C3)C4=CC(=C(C=C4)Cl)O
Method in brief: as §1

[8] = compound: C1COCCN1CCN2C3=CC=CC=C3N=C2NC(=O)C4=CC(=CC=C4)[N+](=O)[O-] [IRAK-1-4 Inhibitor I]
Method in brief: as §1

[9] = compound: C1CCN(C1)C(=O)NC2=CC=CC(=C2)NC3=NC=C(C(=N3)NCCC4=CN=CN4)Br
Method in brief: as §1

[10] = compound: C1CN(CCC1(CC2=CC=C(C=C2)Cl)N)C3=NC=NC4=C3C=CN4
Method in brief: as §1

Measured: log2 fold change

PSMA7 (UniProt H0Y586)
inactive: [1] -0.289 | [2] 0.048 | [3] 0.102

PTMS (UniProt F5GXR3)
inactive: [4] -0.137 | [5] -0.096 | [6] 0

PSMD6 (UniProt Q15008)
inactive: [3] 0.215

PTMA isoform 2 (UniProt P06454)
inactive: [3] 0.015

PTGES3 isoform 4 (UniProt Q15185)
inactive: [3] 0.113 | [7] -0.128 | [8] -0.113

PRSS8 (UniProt Q16651)
inactive: [1] -0.013 | [2] -0.021 | [7] -0.057 | [8] 0.131

PTEN isoform 2 (UniProt P60484)
inactive: [1] 0.011 | [2] 0.01 | [3] -0.03 | [7] -0.026 | [9] -0.111 | [10] 0.102 | [8] 0.041

PTPRF (UniProt P10586)
inactive: [4] -0.4 | [5] -0.069 | [6] 0.064

PTPA (UniProt Q5T948)
inactive: [4] -0.023 | [5] -0.008 | [7] 0.063 | [6] 0.016 | [8] -0.014

PSMD1, A0A087WW66
inactive: [3] -0.158

PSMA7 isoform 2 (UniProt O14818)
inactive: [9] -0.04 | [10] -0.068

PSMC3 (UniProt E9PLG2)
inactive: [4] -0.043 | [5] 0.001 | [6] 0.091

Reprinted at random: 2 entries already listed.
PTPA (UniProt Q5T948)
inactive: [4] -0.023 | [5] -0.008 | [7] 0.063 | [6] 0.016 | [8] -0.014

PSMA7 isoform 2 (UniProt O14818)
inactive: [9] -0.04 | [10] -0.068

— the supplement of paper PMC10849652
